According to patent publication EP4239334A1:
No constants are given. Whether binding was seen depends on the method and setting. In cells and extracts the contact can be indirect. Some binding calls cover weakened binding; strength is not graded here.

Molecular target: NF-κB p65 subunit (endogenous, HEK-293T cells), Q04206
Experiment: Co-IP from transfected HEK-293T cells, endogenous NF-κB subunits
Conditions: remark: other sources report otherwise

binding: binds
B1: IκBα wild type (SEQ ID NO: 4), P25963 1-317 (protein, not shown: small tags and cut ends)
chain: MFQAAERPQEWAMEGPRDGLKKERLLDDRHDSGLDSMKDEEYEQMVKELQEIRLEPQEVPRGSEPWKQQLTEDGDSFLHLAIIHEEKALTMEVIRQVKGDLAFLNFQNNLQQTPLHLAVITNQPEIAEALLGAGCDPELRDFRGNTPLHLACEQGCLASVGVLTQSCTTPHLHSILKATNYNGHTCLHLASIHGYLGIVELLVSLGADVNAQEPCNGRTALHLAVDLQNPDLVSLLLKCGADVNRVTYQGYSPYQLTWGRPSTRIQQQLGQLTLENLQMLPESEDEESYDTESEFTEFTEDELPYDDCVFGGQRLTL
